Assay results as given in US12473291B2 (priority 2019, dated 2025).
For at least one compound, name, drawing or mass did not settle the structure.

Tested on: SD rats
Details: rat, in vivo

CCOC(=O)OCOC(=O)CC[C@@H]1N=C(c2ccccn2)c2cc(Cl)cc(F)c2-n2c(C)cnc21 [Example 71, ((Ethoxycarbonyl)oxy)methyl 3-((4S)-8-chloro-10-fluoro-1-methyl-6-(pyridine-2-yl)-4H-benzo[f]imidazo [1,2-a][1,4]diaza-4-yl)propionate 2-hydroxypropane-1,2,3-tricarboxylate]
duration and recovery time compared with remimazolam: significantly shorter
effective dose compared with remimazolam: significantly lower
